Measurements published in patent US7888291B2, “Substrates and assays for β-secretase” (Elan Pharmaceuticals, Inc., priority 2000, dated 2011).
Not every detail of the peptide structures is certain; ends, links or a residue may be inferred. No end group written: not given here.

Protein sequences, listed by entry. Tags and fused reporters are not part of them. Residues count along the entry.
UniProt P56817, 46-501: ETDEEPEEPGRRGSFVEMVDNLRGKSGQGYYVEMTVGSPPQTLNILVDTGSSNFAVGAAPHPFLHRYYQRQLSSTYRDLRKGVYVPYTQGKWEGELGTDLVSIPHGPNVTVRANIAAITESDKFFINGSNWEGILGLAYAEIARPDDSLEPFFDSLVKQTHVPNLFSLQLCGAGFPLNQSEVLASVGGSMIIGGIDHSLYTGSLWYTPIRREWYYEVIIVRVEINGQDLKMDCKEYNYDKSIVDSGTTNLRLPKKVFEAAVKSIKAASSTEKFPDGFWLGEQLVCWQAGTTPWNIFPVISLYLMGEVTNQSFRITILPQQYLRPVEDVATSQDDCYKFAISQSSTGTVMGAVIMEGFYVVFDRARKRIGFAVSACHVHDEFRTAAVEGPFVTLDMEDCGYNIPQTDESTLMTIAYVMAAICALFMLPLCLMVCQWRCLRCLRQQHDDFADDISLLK

Key:
Hu-Asp = Hu-Asp (Homo sapiens, UniProt P56817); test: Hu-Asp cleavage assay variation for substrates of SEQ ID NO:190 and 191 (Vmax, Km, pH, ionic strength, DMSO); format: biochemical; parameters: made in house; host or cells: High Five insect cells; settings: for Vmax: 100 mM NaOAc/HOAc, pH 4.5 (stated for SEQ ID NO:190 and 191)
Method: In the substrates SEISY-EVEFRWKK (SEQ ID NO:190) and GLTNIKTEEISEISY-EVEFRWKK (SEQ ID NO:191), the 10 N-terminal amino acids of peptide SEISY-EVEFRWKK (SEQ ID NO:190) are identical to those of peptide SEISY-EVEFR (SEQ ID NO:152). The difference between the two peptide is the presence of a tryptophan and two lysines in the peptide of SEQ ID NO:190. […] Hu-Asp activity was tested towards SEISY-EVEFRWKK (SEQ ID NO:190) and GLTNIKTEEISEISY-EVEFRWKK (SEQ ID NO:191). […] The activity difference between the two peptides was particularly dramatic in the pH range 4.0-4.6. Specifically, it was 6.3-4.8 times higher for the peptide of SEQ ID NO:191. […] Both peptides were inhibited by increasing concentrations of DMSO. […] As expected, the N-terminus elongation increases activity. […] The development of the substrates of SEQ ID NO:190 and SEQ ID NO:191 is of great value in Hu-Asp inhibition studies and in studies concerning recombinant Hu-Asp refolding from E. coli inclusion bodies.
In a variation of the above assay for substrates of SEQ ID NO:190 or its N-terminally extended version depicted in SEQ ID NO:191), the substrates are incubated with the enzyme to a final reaction solution volume of 200 μl (although reaction mixtures of 50-100 μl also were used) composed of 5-50 μM peptide substrate, 1-10 nM enzyme, 0.1. M sodium acetate buffer at pH 4 to 5. The reaction is allowed to proceed at 37° C. for 1 to 3 hrs and is terminated by addition of 100 μl 4% TFA. Subsequently, an aliquot e.g., 50 μl to 100 μl of the mixture are injected into an HPLC apparatus (Agilent 1100 series) equipped with an Alltech C18 3 μM Rocket column (53 mm length, 7 mm ID, part No. 50605). Solvent A for the HPLC elution of the substrates from this column was 0.1% TFA in water; Solvent B was 0.1% TFA in acetonitrile. The substrates were then eluted from the column with the following linear gradients: Time 0: 12% Solvent B; Time 4 30% Solvent B; Time 6 50% Solvent B; Time 6.5 90% Solvent B; Time 7 12% Solvent B; Time 8 12% Solvent B.

Hu-Asp2 = biological target: T1, Hu-Asp2 (Homo sapiens, UniProt P56817); test: Hu-Asp2 peptide substrate cleavage assay (HPLC quantitation of cleavage products); format: biochemical
T1 construct: made in house; host or cells: High Five insect cells
Method: The peptides listed in Table 2 were designed, synthesized, and tested for activity as substrates for Hu-Asp2. 200 μM of each test substrate was incubated with 210 nM Hu-Asp2 enzyme at pH 4.5 at 37° C. for 3 hours. Of course it should be understood that these are merely exemplary assay conditions, and those of skill in the art will be able to vary these conditions and yet still provide appropriate Hu-Asp2 activity. For example, it is envisioned that the assays may be conducted at a pH range of from between about 4.0 to about 7.0. […]
In an exemplary assay to determine the cleavage of the substrates of the present invention, Asp2 was prepared from High Five™ insect cells. […] The disappearance of the substrates and the appearance of the products are monitored by continuous measurement of the absorbance of the effluent at […]. Furthermore, if the peptide comprises a tryptophan residue, the monitoring may additionally or alternatively involve continuous monitoring of fluorescence of tryptophan fluorescence (excitation at 280 nm, emission at […]) of the effluent.
In a typical assay, 210 nM enzyme and 200 μM substrate were incubated in 0.2 M sodium acetate at pH 4.5 in 100 μl volume at 37° C. for 1 to 3 hours. […] The cleavage products were then quantitated using an enhanced integrator. […]

Sequence | improvement in Vmax over the Swedish mutant peptide of SEQ ID NO:195 (Hu-Asp) [fold] | Vmax (Hu-Asp) [nmol/mg/min] | activity as substrate of Hu-Asp2 (in words) (Hu-Asp2) | change of activity with increasing ionic strength (Hu-Asp)
GLTNIKTEEISEISYEVEFRWKK [SEQ ID NO:191, GLTNIKTEEISEISY-EVEFRWKK] | 70 | 1260 | much more active than the peptide of SEQ ID NO:190 | 
SEISYEVEFRWKK [SEQ ID NO:190, SEISY-EVEFRWKK] |  | 185 | comparable activities | decreased more rapidly than the activity of peptide of SEQ ID NO:191
